# Library screen at single concentrations

A: 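Whole-cell growth test on Mycobacterium tuberculosis, read after 4 days in a medium based on cholesterol and the lipid DPPC; the read-out is not stated. Tested at 50 µM. Direction is inferred from retests: higher values go with more growth inhibition. Of about 69,000 compounds tested this way, about 370 (0.54%) reached 50% or more in at least one test.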
B: 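Whole-cell growth test on Mycobacterium tuberculosis, read after 3 days in glucose-containing 7H9 medium; the read-out is not stated. Compounds at 50 µM. Direction is inferred from retests: higher values go with more growth inhibition. Of about 69,000 compounds tested this way, about 760 (1.1%) reached 50% or more in at least one test.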

Values are the deposited “Percent Effect”, in %.
The controls that fix the scale are not given in the record; negative values are as filed.
The compounds are a random part of those screened.
Two or more numbers in one place are separate tests of the same structure; such repeats can differ widely.

Compound	A	B
Cc1nnn2c1COCC(CNCc1nccs1)C2.O=C(O)C(F)(F)F (stereo not given)	-13.91	-13.64
Cc1ccc(-c2nnc(CN3CCc4cnc(C)nc4C3)o2)cc1	-17	12.34
Cc1cc2c(cc1C)C(NCc1nnc3n1CCCCC3)CCCO2 (stereo not given)	6.041	27.78
Fc1ccc(CN2CCCCC2Cn2cncn2)c2ncccc12 (stereo not given)	-35.62	4.239 & -0.5218
O=S(=O)(NCc1ccccc1)Nc1cccc(Cn2cncn2)c1	3.596	-23.55
Cc1cc(CN(C)CC(c2cccs2)N2CCOCC2)on1 (stereo not given)	-13.85	-59.57 & -4.553
CCNc1nc(-c2cccnc2)c(-c2ccnc(NS(C)(=O)=O)n2)s1	5.062	10.17
Cc1cnn(C2CN(Cc3noc(C)n3)C2)c1	15.57	-3.243
[H][C@@]12CCCO[C@]1([H])[C@H](OCc1cccnc1)CN2C(=O)c1ccnnc1	2.027 & -2.731	13.27
COc1ccnc(N2CCN(Cc3ncc(-c4ccccc4)o3)CC2)n1	-22.51	-8.524 & -33.92
Cc1ccc(CN2CCn3c(C(=O)N(C)C)cnc3C2)cc1.O=C(O)C(F)(F)F	-17.87 & -11.71	-25.09
COCC1CN(C(=O)c2ccc(C)o2)Cc2nccn2C1 (stereo not given)	-8.57 & -30.14	-13.39
O=C(CCn1cncn1)NC1(c2cccc(Br)c2)CCC1	-13.36	-12.08
Cc1cc(CN(CCO)c2ccc(Br)cc2)on1	8.914	13.15
Cc1noc(C)c1CN1CCCC2(C1)CN(Cc1nccn1C)CCO2.O=C(O)C(F)(F)F.O=C(O)C(F)(F)F (stereo not given)	-16.76	-2.257 & 5.5
COCc1cccc(CNC(=O)c2c(C)noc2C(C)C)c1	-30.54	3.785
CC(=O)N1CCC(NC(=O)Cc2csc(C(C)(C)C)n2)CC1	20.77	20.78
CC(C)SCC(=O)NCc1cc2n(n1)CCCN(C1CCCCC1)C2	-42.43	-19.94
O=C(O)C(F)(F)F.O=C(O)C(F)(F)F.O=C1NC2(CCN(Cc3cccs3)CC2)CC1c1ccncc1 (stereo not given)	-26.25	-18.16
Cc1nccn1C1(C(=O)O)CCN(Cc2ccc3occc3c2)CC1	-12.63	6.167
[H][C@@]12COC[C@@H](Cc3nc(C)no3)[C@]1([H])CN(C(=O)C1=CCCC1)C2	-0.8979	4.994 & 34.22
Cc1ccc(Cn2c(=O)[nH]c3cccnc3c2=O)cc1	9.452	6.529 & 2.723
O=C(O)C(F)(F)F.[H][C@@]12OCCN(C(C)=O)[C@@]1([H])CC[C@H]2OCCCn1cccn1	-3.931	-0.7194
Cc1cc(NC(=O)CN2CCOC(Cn3nc(C)cc3C)C2)n(C)n1 (stereo not given)	-7.045	-2.153
CS(=O)(=O)N1CCC2(CC1)CC(Oc1ccccn1)CO2.O=C(O)C(F)(F)F (stereo not given)	2.471	33.65 & -0.4716
Cc1cc2nc(-c3ccccc3)cc(NCC3CCCOC3)n2n1 (stereo not given)	-13.72	-11.9
CN(CCN1CCOCC1)C(=O)CCc1ccc(C(F)(F)F)cc1	-13.12	-10.57
Cc1ccc(F)c(C(=O)N2C[C@@H](C(=O)O)[C@H](c3ccncc3)C2)c1Cl	-32.84	-34.22
O=C(O)c1cnc(OCC2CC2)c(Cl)c1	2.106	-4.823 & 4.667
Cc1ccc(C(=O)N(C)CCNS(C)(=O)=O)cc1Br	10.69	10.94
COC(=O)c1cc(C(=O)N2CCCCC2C)n(-c2ccccc2)n1 (stereo not given)	22.24	1.336
O=C(CCNc1ncccn1)Nc1ccc(Cn2cncn2)cc1	-4.199	-2.398 & 2.692
O=C(c1ccccn1)N1CCC(Oc2cccnc2)CC1	23.74	23.42
O=C(O)C(F)(F)F.[H][C@]12CCN(C(=O)c3ccccc3)CC[C@@]1([H])S(=O)(=O)CCN2C	-14.42 & -2.16	-18.25 & -4.557
CC(=O)c1c(C)nn(CC(=O)N2Cc3cnc(C(C)(C)C)nc3C2)c1C	-9.92	5.578
Cc1ccc(-c2nnc(CN3CCCC(O)(CO)CC3)o2)n1C (stereo not given)	-16.31	-14.29
Cc1noc(C(C)C)c1C(=O)NCCCN1CCCCCC1=O	-23.84	-12.46
CC(=O)Nc1nc2c(s1)C1(CCCC1)Nc1ccccc1S2	-29.04	-29.09
O=S(=O)(c1ccc(F)c(F)c1)N1CCCC(c2nccs2)C1 (stereo not given)	-7.671	7.14
CCn1nc2c(cc1=O)CN(Cc1nc(-c3ccoc3)no1)CC2	-17.63	-42.13
CC(=O)NCCNC(=O)CN1CCN(Cc2nccn2C)C(C)C1 (stereo not given)	-4.443	14.02
CN1CC2(CCN(Cc3cccc(C#N)c3)CC2)CC1=O	-10.09	-17.6
Cc1nnc(SCC(=O)Nc2csc3nc(=O)c(C)nn23)s1	-14.15	-15.71
CN(Cc1ccncn1)c1nccc(CCC(F)(F)F)n1	-47.19	-23.22

Source: ChEMBL document CHEMBL3988442, “University of Dundee, Small-Polar-MMV Screening Library” (2021).